Some of the results follow. Repeats are few or missing, and single values can be far off.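 Cells were imaged in 1,536-well plates, and nuclei stained with an antibody against cleaved PARP were counted against all DNA-stained nuclei to give the apoptosis fraction. Screening doses were chosen to leave most cells alive, and resting and induced cleaved-PARP levels differ strongly between cell lines.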
How the values were obtained:
Test in all cases: cleaved PARP positive nuclei fraction relative to DMSO control; melanoma cells; higher = more apoptosis
Details in all cases: library dose: low library concentration; 72 h
MZ2-MEL = tested on: MZ2-MEL
MeWo = tested on: MeWo
RPMI7951 = tested on: RPMI7951
RVH-421 = tested on: RVH-421
SkMel28 = tested on: SkMel28
SkMel2 = tested on: SkMel2
SkMel30 = tested on: SkMel30
SkMel5 = tested on: SkMel5
UACC257 = tested on: UACC257
UACC62 = tested on: UACC62
WM115 = tested on: WM115
WM1716 = tested on: WM1716
WM1745 = tested on: WM1745
WM3526 = tested on: WM3526
WM3619 = tested on: WM3619
WM451Lu = tested on: WM451Lu

Row | Compound | cleaved PARP positive nuclei fraction (MZ2-MEL) [%] | cleaved PARP positive nuclei fraction (MeWo) [%] | cleaved PARP positive nuclei fraction (RPMI7951) [%] | cleaved PARP positive nuclei fraction (RVH-421) [%] | cleaved PARP positive nuclei fraction (SkMel28) [%] | cleaved PARP positive nuclei fraction (SkMel2) [%] | cleaved PARP positive nuclei fraction (SkMel30) [%] | cleaved PARP positive nuclei fraction (SkMel5) [%] | cleaved PARP positive nuclei fraction (UACC257) [%] | cleaved PARP positive nuclei fraction (UACC62) [%] | cleaved PARP positive nuclei fraction (WM115) [%] | cleaved PARP positive nuclei fraction (WM1716) [%] | cleaved PARP positive nuclei fraction (WM1745) [%] | cleaved PARP positive nuclei fraction (WM3526) [%] | cleaved PARP positive nuclei fraction (WM3619) [%] | cleaved PARP positive nuclei fraction (WM451Lu) [%]
1 | C=C(c1ccc(C(=O)O)cc1)c1cc2c(cc1C)C(C)(C)CCC2(C)C [Bexarotene] + CCN(CC)CCCCNc1ncc2cc(-c3cc(OC)cc(OC)c3)c(NC(=O)NC(C)(C)C)nc2n1 [PD173074] (first compound 2 µM, partner dose 0.1 µM) | 139 | 179 | 84.2 | 105 | 141 | 79.5 | 81 | 161 | 65.6 | 96.8 | 64.8 | 151 | 88.6 | 84.9 | 99.7 | 74.1
2 | C[C@@H](Oc1cc(-c2cnn(C3CCNCC3)c2)cnc1N)c1c(Cl)ccc(F)c1Cl [Crizotinib] + Oc1nc(-c2ccc(C(F)(F)F)cc2)nc2c1CSCC2 [XAV939] (first compound 0.2 µM, partner dose 2 µM) | 117 | 99.6 | 62.2 | 107 | 92 | 80.1 | 38.1 | 85.7 | 154 | 72.3 | 102 | 219 | 97.6 | 59.2 | 102 | 74.5
3 | Nc1ncn([C@H]2C[C@H](O)[C@@H](CO)O2)c(=O)n1 [decitabine] + Cc1ccc(NC(=O)c2cccc(N(C)C)c2)cc1NC(=O)c1ccc(O)cc1 [ZM336372] (first compound 0.1 µM, partner dose 2 µM) | 222 | 112 | 165 | 122 | 70.5 | 77.3 | 138 | 76.2 | 92.1 | 64.4 | 64.6 | 88 | 92.3 | 59.4 | 109 | 224
4 | O=C(O)c1ccc2c(c1)nc(Nc1cccc(Cl)c1)c1ccncc12 + Oc1nc(-c2ccc(C(F)(F)F)cc2)nc2c1CSCC2 [XAV939] (first compound 0.4 µM, partner dose 2 µM) | 138 | 158 | 167 | 73.1 | 160 | 73.7 | 702 | 96.3 | 112 | 103 | 158 | 284 | 105 | 92.2 | 85.2 | 64.6
5 | CNC(=O)c1cc(Oc2ccc(NC(=O)Nc3ccc(Cl)c(C(F)(F)F)c3)cc2)ccn1 [sorafenib] + CCN(CC)CCCCNc1ncc2cc(-c3cc(OC)cc(OC)c3)c(NC(=O)NC(C)(C)C)nc2n1 [PD173074] (first compound 0.4 µM, partner dose 0.1 µM) | 128 | 36.3 | 107 | 215 | 64.8 | 58.6 | 254 | 81.8 | 40.4 | 93.7 | 69.9 | 118 | 87.6 | 67.6 | 105 | 39.6
6 | O=C(O)c1ccc2c(c1)nc(Nc1cccc(Cl)c1)c1ccncc12 + CCCCCCCCCCCC1=C(O)C(=O)C=C(O)C1=O [Embelin] (first compound 0.4 µM, partner dose 1.2 µM) | 85 | 116 | 49.1 | 57 | 57.1 | 126 | 36.4 | 152 | 126 | 42.8 | 94.2 | 76.3 | 98.5 | 78.6 | 95 | 89.5
7 | CN1CCN(c2ccc3nc(-c4c(N)c5c(F)cccc5[nH]c4=O)[nH]c3c2)CC1 [Dovitinib] + O=C(O)C(=O)Nc1sc2c(c1C(=O)O)CCNC2 [TCS401] (first compound 0.1 µM, partner dose 1.66667 µM) | 288 | 92.3 | 114 | 143 | 85 | 61.3 | 52.5 | 75.4 | 102 | 98.7 | 80.3 | 147 | 102 | 68.8 | 95.3 | 68.4
8 | C=C(c1ccc(C(=O)O)cc1)c1cc2c(cc1C)C(C)(C)CCC2(C)C [Bexarotene] + CCc1ccc(CCOc2ccc(CC3SC(=O)NC3=O)cc2)nc1 [pioglitazone] (first compound 2 µM, partner dose 2 µM) | 116 | 73.5 | 82.9 | 39.9 | 24.7 | 176 | 40.5 | 168 | 83.1 | 83.3 | 10.1 | 47.3 | 86.7 | 219 | 79.8 | 87.3
9 | CS(=O)(=O)CCNCc1ccc(-c2ccc3ncnc(Nc4ccc(OCc5cccc(F)c5)c(Cl)c4)c3c2)o1 [lapatinib] + COC(=O)c1sccc1S(=O)(=O)Nc1ccc(Nc2ccccc2)cc1OC [GSK0660] (first compound 0.8 µM, partner dose 1 µM) | 129 | 99.1 | 34.6 | 154 | 38 | 64.2 | 76.2 | 83.3 | 123 | 47.4 | 62.1 | 99.2 | 78.4 | 74.5 | 94.4 | 35.5
10 | Cc1cc(Nc2cc(N3CCN(C)CC3)nc(/C=C/c3ccccc3)n2)n[nH]1 + COc1cc2c(Oc3ccc4[nH]c(C)cc4c3F)ncnc2cc1OCCCN1CCCC1 [cediranib] (first compound 0.04 µM, partner dose 0.4 µM) | 121 | 102 | 100 | 20.2 | 102 | 60.7 | 65.9 | 79.1 | 129 | 232 | 50.8 | 166 | 134 | 118 | 101 | 101
11 | C=C(c1ccc(C(=O)O)cc1)c1cc2c(cc1C)C(C)(C)CCC2(C)C [Bexarotene] + COc1cc2ncnc(Nc3ccc(Oc4ccccc4)cc3)c2cc1OC [SrcI1] (first compound 2 µM, partner dose 2 µM) | 206 | 93.5 | 133 | 80.4 | 202 | 91.8 | 145 | 87 | 184 | 186 | 96.6 | 239 | 114 | 76.3 | 106 | 141
12 | Nc1ncn([C@H]2C[C@H](O)[C@@H](CO)O2)c(=O)n1 [decitabine] + O=C(CCCCCCC(=O)Nc1ccccc1)NO [vorinostat] (first compound 0.1 µM, partner dose 0.08 µM) | 156 | 50.9 | 74.4 | 269 | 179 | 95.6 | 73.4 | 84.8 | 202 | 128 | 61.6 | 97.6 | 98.3 | 119 | 112 | 70.3
13 | Cc1cc(Nc2cc(N3CCN(C)CC3)nc(/C=C/c3ccccc3)n2)n[nH]1 + COc1ccc2c(c1)CCC1C2CCC2(C)C(NCCCCCCN3C(=O)C=CC3=O)CCC12 [U73122] (first compound 0.04 µM, partner dose 0.4 µM) | 164 | 186 | 266 | 144 | 221 | 182 | 49.2 | 93.1 | 67.5 | 405 | 56.3 | 240 | 81.2 | 83.3 | 119 | 78.8
14 | Cn1c(=O)n(-c2ccc(C(C)(C)C#N)cc2)c2c3cc(-c4cnc5ccccc5c4)ccc3ncc21 + O=C(CCCCCCC(=O)Nc1ccccc1)NO [vorinostat] (first compound 0.004 µM, partner dose 0.08 µM) | 52.9 | 90.8 | 100 | 24.8 | 40.4 | 100 | 63.4 | 73.7 | 67.1 | 180 | 74.8 | 46 | 84 | 72.1 | 95.9 | 95.4

Fetched one by one from the entries so far:
Row | Compound | cleaved PARP positive nuclei fraction (MZ2-MEL) [%] | cleaved PARP positive nuclei fraction (MeWo) [%] | cleaved PARP positive nuclei fraction (RPMI7951) [%] | cleaved PARP positive nuclei fraction (RVH-421) [%] | cleaved PARP positive nuclei fraction (SkMel28) [%] | cleaved PARP positive nuclei fraction (SkMel2) [%] | cleaved PARP positive nuclei fraction (SkMel30) [%] | cleaved PARP positive nuclei fraction (SkMel5) [%] | cleaved PARP positive nuclei fraction (UACC257) [%] | cleaved PARP positive nuclei fraction (UACC62) [%] | cleaved PARP positive nuclei fraction (WM115) [%] | cleaved PARP positive nuclei fraction (WM1716) [%] | cleaved PARP positive nuclei fraction (WM1745) [%] | cleaved PARP positive nuclei fraction (WM3526) [%] | cleaved PARP positive nuclei fraction (WM3619) [%] | cleaved PARP positive nuclei fraction (WM451Lu) [%]
1 | C=C(c1ccc(C(=O)O)cc1)c1cc2c(cc1C)C(C)(C)CCC2(C)C [Bexarotene] + CCN(CC)CCCCNc1ncc2cc(-c3cc(OC)cc(OC)c3)c(NC(=O)NC(C)(C)C)nc2n1 [PD173074] (first compound 2 µM, partner dose 0.1 µM) | 139 | 179 | 84.2 | 105 | 141 | 79.5 | 81 | 161 | 65.6 | 96.8 | 64.8 | 151 | 88.6 | 84.9 | 99.7 | 74.1
6 | O=C(O)c1ccc2c(c1)nc(Nc1cccc(Cl)c1)c1ccncc12 + CCCCCCCCCCCC1=C(O)C(=O)C=C(O)C1=O [Embelin] (first compound 0.4 µM, partner dose 1.2 µM) | 85 | 116 | 49.1 | 57 | 57.1 | 126 | 36.4 | 152 | 126 | 42.8 | 94.2 | 76.3 | 98.5 | 78.6 | 95 | 89.5

Reference: the supplement of paper PMC4604168 (melanoma cell lines)
